Data as given in PubChem BioAssay AID1053208 (Peter MacCallum Cancer Centre, 2014)
The deposit covers about 17,000 reagents; shown is a part drawn at random. 788 of all reagents (4.7%) count as active. 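Calls rest on z-score classes alone; an extra cut-off of viability at most 70% of control was not applied to them.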 Entries without a mark were called inactive.

- Screen: 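Find knock-downs that sensitise mouse osteosarcoma cells to doxorubicin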 (primary screen)
- System: mouse osteosarcoma cells, early-passage culture from an engineered mouse model of fibroblastic bone tumour
- Knock-down reagent: siRNA pool against mouse genes, 40 nM
- Time to read-out: about 120 h (48 h before drug, then 72 h with drug)
- Treatment: doxorubicin 100 nM for 72 h, roughly 30-40% inhibitory dose
- Read-out: 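Luminescent ATP signal taken as viability with or without 100 nM doxorubicin for 72 h; mean of two wells set against non-targeting siRNA and turned into robust z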
- Reading the numbers: viability z-score with doxorubicin and doxorubicin viability vs non-targeting: higher = more viable cells under doxorubicin; viability z-score without drug: higher = more viable cells with knock-down alone; z-score of drug to no-drug ratio: higher = less drug sensitisation by knock-down
- Rule for the call: 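Called active if knock-down leaves viability unchanged without drug (z within -2 to 2) but lowers it with doxorubicin (z at or under -2)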

| target gene | combined z-score class | viability z-score with doxorubicin | viability z-score without drug | z-score of drug to no-drug ratio | doxorubicin viability vs non-targeting |
| --- | --- | --- | --- | --- | --- |
| Dzank1 | no change with or without drug | 0.22 | 1.01 | -0.34 | 0.96 |
| Mettl25b | no change with or without drug | 1.35 | -0.17 | 1.69 | 1.06 |
| Klra3 | no change with or without drug | 0.45 | 1.69 | -0.56 | 0.98 |
| Fundc2b | no change with or without drug | -0.67 | 1.01 | -1.24 | 0.88 |
| Dntt | high cell count without drug only | 1.46 | 2.36 | 0 | 1.07 |
| Plcg1 | no change with or without drug | -0.67 | 0.84 | -1.12 | 0.88 |
| Camk2b | no change with or without drug | -0.67 | -1.85 | 0.79 | 0.88 |
| Adcy8 | no change with or without drug | 0.22 | 0 | 0.34 | 0.96 |
| Mef2c | no change with or without drug | 0.45 | 0.84 | 0 | 0.98 |
| Fn1 | no change with or without drug | -0.67 | 0.34 | -0.79 | 0.88 |
| BC005537 | no change with or without drug | -0.79 | -0.51 | -0.34 | 0.87 |
| Nr2c2 | no change with or without drug | 0.9 | 1.52 | 0 | 1.02 |
| Hspa8 | low cell count with and without drug | -5.4 | -5.06 | -3.04 | 0.46 |
| Fap | no change with or without drug | -0.45 | -0.51 | 0 | 0.9 |
| Chchd6 | no change with or without drug | 1.57 | 1.01 | 1.01 | 1.08 |
| Efcab7 | no change with or without drug | 1.24 | 0.51 | 1.01 | 1.05 |
| Slc13a3 | no change with or without drug | -0.67 | 1.52 | -1.46 | 0.88 |
| Cnnm4 | no change with or without drug | 0.22 | -0.17 | 0.45 | 0.96 |
| Hc | no change with or without drug | 0.45 | 0.67 | 0.11 | 0.98 |
| Hsp90b1 | no change with or without drug | -0.11 | 0.34 | -0.22 | 0.93 |
| Babam1 | no change with or without drug | -0.79 | 0 | -0.67 | 0.87 |
| Chpt1 | no change with or without drug | 0.22 | -0.84 | 1.01 | 0.96 |
| Adamts1 | no change with or without drug | 0.22 | 0.17 | 0.22 | 0.96 |
| Gprin3 | no change with or without drug | -1.35 | 0.17 | -1.46 | 0.82 |
| Or8s5 | no change with or without drug | -0.67 | -1.52 | 0.45 | 0.88 |
| Mov10 | low cell count with and without drug | -3.04 | -2.19 | -1.8 | 0.67 |
| Chm | no change with or without drug | -0.34 | -1.18 | 0.56 | 0.91 |
| Itprid2 | no change with or without drug | 1.12 | 0.34 | 1.01 | 1.04 |
| Cenpx | no change with or without drug | 0 | 0.67 | -0.34 | 0.94 |
| Eid3 | low cell count with doxorubicin only (active) | -4.05 | -0.67 | -3.82 | 0.58 |
| Mup4 | no change with or without drug | -0.22 | -1.18 | 0.79 | 0.92 |
| Or8b12c | no change with or without drug | 1.01 | 0 | 1.12 | 1.03 |
| Gja5 | no change with or without drug | 0.22 | 0.17 | 0.22 | 0.96 |
| Bend5 | no change with or without drug | 0 | 1.35 | -0.79 | 0.94 |
| Gphb5 | no change with or without drug | -0.22 | -0.34 | 0.11 | 0.92 |
| Psma5 | low cell count with and without drug | -4.95 | -5.23 | -2.25 | 0.5 |
| Clstn3 | no change with or without drug | 0 | 0.51 | -0.22 | 0.94 |
| Ak3 | no change with or without drug | 0.34 | -0.34 | 0.67 | 0.97 |
| Rpn1 | no change with or without drug | -1.57 | -0.84 | -1.01 | 0.8 |
| Pdcd10 | no change with or without drug | 1.12 | 0 | 1.24 | 1.04 |
| Igf2 | no change with or without drug | 0.11 | 0.17 | 0.11 | 0.95 |
| Tescl | no change with or without drug | -0.34 | -0.84 | 0.34 | 0.91 |
| Rhou | no change with or without drug | -0.22 | 0.84 | -0.67 | 0.92 |
| Epcam | no change with or without drug | -0.45 | 0.17 | -0.45 | 0.9 |
| Ugt2b35 | no change with or without drug | -1.91 | -0.51 | -1.57 | 0.77 |
| Orc5 | no change with or without drug | 1.12 | 1.18 | 0.45 | 1.04 |
| Or56a5 | no change with or without drug | 0.22 | -0.17 | 0.45 | 0.96 |
| Ttll13 | no change with or without drug | 1.12 | 0.84 | 0.67 | 1.04 |
| Polr1d | no change with or without drug | 0.22 | -0.51 | 0.67 | 0.96 |
| Jund | no change with or without drug | 0.67 | -0.17 | 0.9 | 1 |

Active calls, among the entries above:
| target gene | combined z-score class | viability z-score with doxorubicin | viability z-score without drug | z-score of drug to no-drug ratio | doxorubicin viability vs non-targeting |
| --- | --- | --- | --- | --- | --- |
| Eid3 | low cell count with doxorubicin only (active) | -4.05 | -0.67 | -3.82 | 0.58 |
